Data taken from publication PMC8630059.
These are yes or no findings as the source states them, for the method shown. In cells and extracts the contact can be indirect. These calls come from enrichment with a bait or labelling near it, and not all partners need be listed.

Protein sequences, listed by entry. Tags and fused reporters are not part of them.
UniProt Q96EB6: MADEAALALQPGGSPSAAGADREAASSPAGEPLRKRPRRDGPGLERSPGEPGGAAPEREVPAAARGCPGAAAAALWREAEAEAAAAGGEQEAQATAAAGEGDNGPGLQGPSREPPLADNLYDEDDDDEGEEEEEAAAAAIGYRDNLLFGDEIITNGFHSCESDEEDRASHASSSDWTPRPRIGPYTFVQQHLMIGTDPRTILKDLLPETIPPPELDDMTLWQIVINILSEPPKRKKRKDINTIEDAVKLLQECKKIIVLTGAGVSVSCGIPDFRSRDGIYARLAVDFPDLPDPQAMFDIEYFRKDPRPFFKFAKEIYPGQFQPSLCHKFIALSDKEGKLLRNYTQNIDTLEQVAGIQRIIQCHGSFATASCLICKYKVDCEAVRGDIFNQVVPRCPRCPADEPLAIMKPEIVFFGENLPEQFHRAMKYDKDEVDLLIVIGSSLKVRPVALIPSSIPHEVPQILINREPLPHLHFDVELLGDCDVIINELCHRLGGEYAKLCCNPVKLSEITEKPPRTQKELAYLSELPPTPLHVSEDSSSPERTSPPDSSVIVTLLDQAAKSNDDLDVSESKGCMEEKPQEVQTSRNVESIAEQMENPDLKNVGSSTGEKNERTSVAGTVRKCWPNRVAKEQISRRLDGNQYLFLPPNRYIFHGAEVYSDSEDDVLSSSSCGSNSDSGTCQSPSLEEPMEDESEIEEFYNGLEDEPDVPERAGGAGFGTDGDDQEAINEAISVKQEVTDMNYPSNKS
UniProt Q13547: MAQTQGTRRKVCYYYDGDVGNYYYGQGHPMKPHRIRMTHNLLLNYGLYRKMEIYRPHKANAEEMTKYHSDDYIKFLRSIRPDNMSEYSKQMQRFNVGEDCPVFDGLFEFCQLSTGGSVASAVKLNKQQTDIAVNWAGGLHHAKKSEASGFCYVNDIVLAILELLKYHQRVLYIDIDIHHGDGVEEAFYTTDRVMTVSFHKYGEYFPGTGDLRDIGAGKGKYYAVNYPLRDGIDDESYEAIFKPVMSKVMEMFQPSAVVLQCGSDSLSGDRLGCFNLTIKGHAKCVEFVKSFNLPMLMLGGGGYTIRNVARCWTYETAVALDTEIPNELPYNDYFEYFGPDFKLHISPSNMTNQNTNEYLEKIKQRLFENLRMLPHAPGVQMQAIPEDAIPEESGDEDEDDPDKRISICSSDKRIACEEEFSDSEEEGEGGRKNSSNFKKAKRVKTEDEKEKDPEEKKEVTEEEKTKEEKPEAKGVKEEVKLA
UniProt O75530: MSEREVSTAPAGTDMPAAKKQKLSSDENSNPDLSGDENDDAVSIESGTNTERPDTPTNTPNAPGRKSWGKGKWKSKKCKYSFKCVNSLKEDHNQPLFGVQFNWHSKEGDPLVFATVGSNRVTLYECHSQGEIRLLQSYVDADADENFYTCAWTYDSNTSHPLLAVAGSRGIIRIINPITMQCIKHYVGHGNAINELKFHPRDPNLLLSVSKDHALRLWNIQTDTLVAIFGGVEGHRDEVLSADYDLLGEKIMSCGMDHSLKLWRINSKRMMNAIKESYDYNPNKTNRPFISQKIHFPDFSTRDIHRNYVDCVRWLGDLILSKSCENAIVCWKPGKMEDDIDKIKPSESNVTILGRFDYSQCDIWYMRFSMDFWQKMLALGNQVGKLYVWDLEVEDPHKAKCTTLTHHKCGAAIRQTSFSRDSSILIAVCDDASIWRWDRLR
UniProt Q16531: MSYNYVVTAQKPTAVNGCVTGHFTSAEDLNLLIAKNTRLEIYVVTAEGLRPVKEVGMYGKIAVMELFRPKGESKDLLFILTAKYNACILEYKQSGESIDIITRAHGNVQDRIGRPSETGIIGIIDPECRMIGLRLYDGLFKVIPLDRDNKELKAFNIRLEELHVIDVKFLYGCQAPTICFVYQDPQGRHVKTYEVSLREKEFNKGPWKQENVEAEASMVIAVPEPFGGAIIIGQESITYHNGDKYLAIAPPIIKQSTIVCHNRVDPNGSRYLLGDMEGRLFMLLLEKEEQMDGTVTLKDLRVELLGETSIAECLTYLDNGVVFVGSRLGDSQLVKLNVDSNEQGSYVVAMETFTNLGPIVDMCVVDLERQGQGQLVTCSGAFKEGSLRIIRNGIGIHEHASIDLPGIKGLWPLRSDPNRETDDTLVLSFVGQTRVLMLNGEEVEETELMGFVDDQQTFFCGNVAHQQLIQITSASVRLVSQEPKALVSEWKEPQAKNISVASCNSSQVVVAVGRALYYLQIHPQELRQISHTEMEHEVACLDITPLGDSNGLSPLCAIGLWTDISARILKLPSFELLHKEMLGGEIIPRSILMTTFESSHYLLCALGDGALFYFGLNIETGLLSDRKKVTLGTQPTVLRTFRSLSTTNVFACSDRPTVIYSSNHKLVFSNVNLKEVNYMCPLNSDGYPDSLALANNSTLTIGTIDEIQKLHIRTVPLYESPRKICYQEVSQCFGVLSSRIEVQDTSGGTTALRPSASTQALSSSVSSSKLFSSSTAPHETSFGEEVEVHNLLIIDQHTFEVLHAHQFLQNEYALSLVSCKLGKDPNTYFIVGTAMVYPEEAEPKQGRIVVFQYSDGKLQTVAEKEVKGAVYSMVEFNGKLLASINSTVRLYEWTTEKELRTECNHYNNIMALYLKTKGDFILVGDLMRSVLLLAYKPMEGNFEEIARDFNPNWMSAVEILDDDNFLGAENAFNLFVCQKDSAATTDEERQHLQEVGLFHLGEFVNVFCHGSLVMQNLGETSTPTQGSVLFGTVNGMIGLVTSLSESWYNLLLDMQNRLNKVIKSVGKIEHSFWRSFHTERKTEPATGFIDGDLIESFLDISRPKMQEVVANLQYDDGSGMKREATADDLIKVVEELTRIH
UniProt Q92769: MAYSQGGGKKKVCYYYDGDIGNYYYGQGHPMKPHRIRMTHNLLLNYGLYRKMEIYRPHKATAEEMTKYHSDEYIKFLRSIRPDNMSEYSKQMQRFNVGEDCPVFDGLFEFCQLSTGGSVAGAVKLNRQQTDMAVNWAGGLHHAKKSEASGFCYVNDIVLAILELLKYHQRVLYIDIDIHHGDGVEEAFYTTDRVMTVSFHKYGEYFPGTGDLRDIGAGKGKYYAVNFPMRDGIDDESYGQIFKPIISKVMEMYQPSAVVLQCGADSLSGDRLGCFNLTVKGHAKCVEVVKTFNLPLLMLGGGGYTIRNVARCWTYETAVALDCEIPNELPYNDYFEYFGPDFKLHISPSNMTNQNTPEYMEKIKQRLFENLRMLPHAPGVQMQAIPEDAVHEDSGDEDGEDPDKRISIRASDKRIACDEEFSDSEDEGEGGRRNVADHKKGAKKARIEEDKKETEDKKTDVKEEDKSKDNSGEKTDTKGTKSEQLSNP

Molecular target: FLAG-tagged SIRT1 (human) (UniProt Q96EB6)
Experiment: affinity purification with mass spectrometry; whole-cell extracts of PANC-1 cells stably expressing FLAG-SIRT1 on anti-FLAG M2 affinity columns, eluted with FLAG peptide (0.2 mg/ml); SDS-PAGE, silver stain, LC-MS/MS of the bands

| binding | Molecule |
| --- | --- |
| binds | HDAC1 (from UniProt Q13547 1-482) (enzyme) |
| binds | EED (from UniProt O75530 1-441) |
| binds | DDB1 (endogenous) (from UniProt Q16531 1-1140) |
| binds | HDAC2 (from UniProt Q92769 1-488) (enzyme) |
| binds | SAP30 (protein, UniProt O75446 1-220) MNGFTPDEMSRGGDAAAAVAAVVAAAAAAASAGNGTGAGTGAEVPGAGAVSAAGPPGAAGPGPGQLCCLREDGERCGRAAGNASFSKRIQKSISQKKVKIELDKSARHLYICDYHKNLIQSVRNRRKRKGSDDDGGDSPVQDIDTPEVDLYQLQVNTLRRYKRHFKLPTRPGLNKAQLVEIVGCHFRSIPVNEKDTLTYFIYSVKNDKNKSDLKVDSGVH |
